Experimental data reported in patent US20160369264A1 (HOWARD HUGHES MEDICAL INSTITUTE, published 2016).
These are yes or no findings as the source states them, for the method shown. Some results given as binding are weak or reduced against the parent protein; the word gives no strength. Tags and fused reporters may be left off the sequences shown.

Target: p3Z-42 fusion of the Integrin binder av6-3
Assay: self-assembly of fusion trimers; negative-stain TEM of E. coli pellet

- binding: binds
B1: p3Z-42 fusion of the Integrin binder av6-3 (designed binder, not shown: small tags and cut ends)
chain: MHNNRLQLSRLERVYQSEQAEKLLLAGVMLRDPARFDLRGSLTHGRDVEIDTNVIIEGNVSLGNRVKIGTGCVIKNSAIGDDCEISPYTVVEDAVLAAACTIGPFARLRPGAVLLEGAHVGNFVEMKKAVLGKGSKAGHLTYLGDAAIGDNVNIGAGTITCNYDGANKFTTIIGDDVFVGSDTQLVAPVSVGKGATIAAGTTVTRNVGANALAISRVPQTQKEGWRRPVKKKLE
